Laboratory results reported in patent publication US20050004016A1 (priority 2000, published 2005).
*: point of attachment. Cbz = O=C(OCc1ccccc1)*; OBn = c1ccc(CO*)cc1

Assay: general procedure: solution-phase peptide synthesis; N-oxysuccinimide esters; N,N'-dicyclohexylcarbodiimide / N-oxybenzotriazole
Settings: acetate; for final HPLC purity: whole synthesis, 220 nm

Substance | step yield (late stage modification step) | final HPLC purity (run 1) | final HPLC purity (run 2) | step yield (coupling step)
alanyl-glutamyl-aspartyl-glycine | 95% | 98.45% | 98.5% | 
Cbz-AE(OBn)D(OBn)G-OBn |  |  |  | 82%
